{"source": "paper PMC12370185", "note": "The other results are listed elsewhere or left out.", "data": [{"system": "SOX2 + histone octamer", "assay": "EMSA with sequencing", "conditions": "10 mM Tris-Cl pH 7.5, 50 mM NaCl, 1 mM DTT, 0.25 mg/ml BSA, 2 mM MgCl2, 0.025% Nonidet P-40, 5% glycerol; 28 nM nucleosome library; 10 min on ice then 30 min …; high values mean tight binding; double strand, one strand shown", "values": [{"sequence": "GATGGACCCTATACGCGGCACACATCAGGAAAGATGGCAAGCAGAACGAGAACTAGTGCTACAAAAAGTGATCTCACTGTAACAGCATGGGTGGGCCTGGAAGTCAGTTCTCATGCAACCCCATTAGTTCTAGAAAGTTCTCATATGACTAAGAAAAAGCTGACAGGAATCAAACAGATTTCATCATTAAGCAAACAGAAAACATCAAGTTGCCAGTCGGATAGTGTTCC", "binding signal (log2 relative supershift)": 0.0172}, {"sequence": "GATGGACCCTATACGCGGCTCTACTTCTTGTTTCTTTCCTTGCTATTTAATACTTAAAGTGTGGTGCCCCACTTGTTTGCCAGGAGCAGTATCACATCAGACTCTGCTGTTAACAAGGTCCCCAGGTGATTCATATGCACATTAAAGTTCATTTTGCACCTCTTTTGGCATTGACTTTACTTTCAGTGGCCTATTTTATGTAATGTAAAATGCCAGTCGGATAGTGTTCC", "binding signal (log2 relative supershift)": 0.237}, {"sequence": "GATGGACCCTATACGCGGCTGAAACAATCCTTACTCAGAGAGTGGATTTGCATCTCTAATAGAGTTCAGGCTCTGTTTGTGAAAGGCTTTTGCTAGGCCTGACCCCATGTCTCAGGAGCACATTGATACCCAGCGCCTTGCCTTTGCCTTGTCCCACACCACAGAGAGCAGTATCATGGGAAAATGCACTAACCTAAAAGAAAGCAAAGGTGCCAGTCGGATAGTGTTCC", "binding signal (log2 relative supershift)": 1.22}]}, {"system": "c-MYC + MAX + histone octamer", "assay": "EMSA with sequencing", "conditions": "10 mM Tris-Cl pH 7.5, 50 mM NaCl, 1 mM DTT, 0.25 mg/ml BSA, 2 mM MgCl2, 0.025% Nonidet P-40, 5% glycerol; 28 nM nucleosome library; 10 min on ice then 30 min …; high values mean tight binding; double strand, one strand shown", "values": [{"sequence": "GATGGACCCTATACGCGGCCTGGGTTCTGAGAGCCTTCAGGACATGTGTCACCGCAGACGACGTTTTAACTTGTAGTGCTAGCTGCTTGTTTCAACTTGCTCCACAAAGGAAAAATAACTATTATGGTCTGGGTGGCACTGGGAAAACATCTTCCATCTTCTAGACCTAGAAGTGAGACTTTTAGCTGAAGAAATGGACTCCAAGTCCAGTGCCAGTCGGATAGTGTTCC", "binding signal (log2 relative supershift)": 0.192}, {"sequence": "GATGGACCCTATACGCGGCTGTGAAATAACCTGCATTAGAATTACCTGGTGGACAACACATATTAACAATGCATATTCTGAGTCCTCAAAGAACTATCAAATAAGAATCTTTGAGGTGGGGCTACACAATCTCCATCACTGGCAAGCACTCCCAGTACTTCTTATGCACATTACAATTCAAGAACCACTCATGGCTCACATAACTGCTCATGCCAGTCGGATAGTGTTCC", "binding signal (log2 relative supershift)": 0.2}, {"sequence": "GATGGACCCTATACGCGGCGGCCTGGACCCAACCCGAAACTCAACAAGCAGCAGCCTGGCCGTGGTGCCTCAAGCCAGCCACTAGAGGGTGCAGTTGAGCTGTCAGCCTGCCTGGAGGGGCGAGGTGGTGGGGGTGAGTGTGCAGGCGTGTGTGTGTGTGTGTGTGTGTGTGCGCGCGCGCGCGCGCCTGTGTGTGGGCGTGTTGTGTGCTGCCAGTCGGATAGTGTTCC", "binding signal (log2 relative supershift)": 0.669}, {"sequence": "GATGGACCCTATACGCGGCGAACAATCAAGAGCTGTTTCTCTTTGCTCTTCCTCATAGCCATGCTGGAGGCATTCATAGGCACATCCTGGTGGAGGGTGATTTGGGTGGGTAGGAATGGACTTGTTCTGTTGACATTGGCATGAAAGGACTAGAGTGCATCCATCATTCTATGGGTATTTAATGGGCCCTATGTTGAGCTGTGTTCTGGTTGCCAGTCGGATAGTGTTCC", "binding signal (log2 relative supershift)": 0.29}, {"sequence": "GATGGACCCTATACGCGGCGCTTTAGAAATGAATTAAACTCGGTGGAACATTGAATGAGAGTTCACCATTACAATGAGGTACATTTACAATGTTAACAAATGAGGATAAACAGTGATACTTCCCTTTGTGTTATGGGGAGGGGGGCGGGCAAGTGAATGGCCAGGAGCCAAAGGTGGAGGAGAGACATGCTTTTCACAATGTATTCTGATTGCCAGTCGGATAGTGTTCC", "binding signal (log2 relative supershift)": 0.369}, {"sequence": "GATGGACCCTATACGCGGCTTGAAAGCCAAACTCTTAGATGTTGTGCATGTCGAAACTGGAACAAAGATTATAATGCAAGTTCAATTTTCCTCAAATATGGATCTCAACATTAATTGTGGTATGCAGCTCACCCACAGCCTTGGGTGTGGTCTATGAATGCAGCTGCTACTCTGTTCTACAATTATTGTATTTTATTGCCATTATGACTGTGCCAGTCGGATAGTGTTCC", "binding signal (log2 relative supershift)": 0.392}, {"sequence": "GATGGACCCTATACGCGGCGAATGGTGGCTGGACTCTATTAGGCTCCAAACTCTCATGTGCCTGAGCGCCAGCTCCCTCTCTAAACATAAGCATCTCGGGGCTGGAGGTGGGGGGAAATTTTCTGATGCATCTTTCTTTGCCATGTAATTCCTACCCCAGGATCATGCTCACATAAGTGTTCTTGGAATATGTGAGTAAGTGACTGAAAATGCCAGTCGGATAGTGTTCC", "binding signal (log2 relative supershift)": 0.178}, {"sequence": "GATGGACCCTATACGCGGCATTATGTACACAGTCTCATGGACAAAGGCATTTGTCAAGTCTCTATGATATTTCTAGAAATACCTTACAGGGCATTATGACTATACAAAGTCAGGGTAGGGCAGCAGAATGCCTGTCTTCAAGACTCTCCATCCCAATGCTCAGGACTTGTTATGCTACTCAGACCAGCATCTTTTGCACAAAGTATTTGTTGCCAGTCGGATAGTGTTCC", "binding signal (log2 relative supershift)": 0.263}, {"sequence": "GATGGACCCTATACGCGGCTTAATTCCTCCACTCTTGCAAGTGTACTTAATAGCTCACACAAAGCAAGAAGCATAACCGCAAGAACACAGAGAAGCCTGCCCTGCCAGGTTTATTGTGTGCCTGGCTGCGTGATTATTGTTTTGCATATAACCTCACAGAGGAAATCCTGTGTCAGGCACTTCCAGAGCCTCATGTAGTTTTACTGGATGTGCCAGTCGGATAGTGTTCC", "binding signal (log2 relative supershift)": 0.103}, {"sequence": "GATGGACCCTATACGCGGCTATAGAGATTGAATGGAAGAGTGCCTTGGAAAGTGTCTCTACCAAATGGCACCTGAGCTGAATGTTGTAGAATAAGAGCTGTTCATCAGGATGACAATGGGAGGGGAGGAGGCTGAGATAAAGGCATTTCAAATGGAGGGAATAGCAAAGATGTGGAAGCATGGCCTGTCATTAAACTGCAAGTAGTTCAGTGCCAGTCGGATAGTGTTCC", "binding signal (log2 relative supershift)": 0.0618}, {"sequence": "GATGGACCCTATACGCGGCTCATGGAATCCTTCATTAGCTCCATTTCTTAGCAGAAAAGGTTGTGCAGCATATGCCATATCATACTGGATATGCCCCATCTCATGATGAGCTGTCAGGAAGTCGTCCATTGTCACCTTTGTGCACATAAGGATCCTGCATGAAAATGGACAAGATGAAAATGAATCTCACTGACTTTCATTTAACCATTATGCCAGTCGGATAGTGTTCC", "binding signal (log2 relative supershift)": 0.114}, {"sequence": "GATGGACCCTATACGCGGCATGATTCTCGCCAGTGGTATTAACATATCCTCAGTGGTGAGTATTAACATGGAACTTACTCCAACAATACAGATGCTGAATAAATGTAGTCTAAGTGAAGGAAGAAGGAAAGGTGGGAGCTGCCATCACTCAGAATTGTCCAGCAGGGATTGTGCAAGCTTGTGAATAAAGACAGAGGTTATTGAACAGCGTGCCAGTCGGATAGTGTTCC", "binding signal (log2 relative supershift)": 0.683}, {"sequence": "GATGGACCCTATACGCGGCTGCTGGAATGTTCCTGTATTGCCTGCTTTAGCATGTGTGTTGGCAGGGTGTAGATACATACACCCCCACAACGACCCTCCTCCCACCCTATGTAAATGTACTCACTCTACAGCATTGTAAAGGATTTCATTGTGCCATTTTGTTTTCAGAATCATCTTTCACTCTTTTGTGAGTATAATGATAGTAGCTGTTGCCAGTCGGATAGTGTTCC", "binding signal (log2 relative supershift)": 0.223}, {"sequence": "GATGGACCCTATACGCGGCGAGTAAACCAGTCTGCCTGTGAGAGTATTGACTGTGGTTAAGAATGCGGGATTGTGTTGCAAAGAAGCTCAGGCCTGTAATGTTATCACTCAGCAGGACTGGGTCCCATCAGAAGGCACATGGTGTGCCATGACGTAGCTGGTCTTCGACCACAAAAGCAGACTTTTCTCTGTGAATTAGACAAACCACACTGCCAGTCGGATAGTGTTCC", "binding signal (log2 relative supershift)": 0.247}, {"sequence": "GATGGACCCTATACGCGGCTAAAGTCCTTCAACATGTGAACAGACACTGTTTCTGAGGCTGTCACACACATGCAGGGAAAAGGATTTACCTTACAAAACAATGTTGCTTTGATAATACCACATCTGCAACCCTAATTGTGCCTTTGTAGCAAGTTGGTTTGGCCATTGGTCATCCTCCACAGCACTGCAATTTATCCTCCAGGAACACATTGCCAGTCGGATAGTGTTCC", "binding signal (log2 relative supershift)": 0.703}, {"sequence": "GATGGACCCTATACGCGGCTACCAGAGACTGGACAATTTACAAAAGAAAGTGATTTATTGGACTTAACAGTTCCATGTGGCTGGGGAGGCCTCACAATCACAGTGGAAGGTGAAAGGCAAAAGGCACATCGCACATGGTGGCAGACAGGAGAACAGAGCTTGTGCAGGGAGAATGCCCTTTTACATCATATCTCAAGAGACATATTCACTTGCCAGTCGGATAGTGTTCC", "binding signal (log2 relative supershift)": 0.168}, {"sequence": "GATGGACCCTATACGCGGCTTTGGTTTTCCATATTTATATCCTATATACTTGTGTGTACAATGCAAGCTTTGTTATGCTGTATCTGGCCAGTGTTTTCTTCCCTTTACAACAGGCAGTAACTGTAGCTGTGCATAATGTACCTGACAGTGAAGGTGGCTGGCTATTGAAGTCTCTTGTTGGGCAACGTTTGTGCTGGCACAGCCATGGTATGCCAGTCGGATAGTGTTCC", "binding signal (log2 relative supershift)": 0.0572}]}]}
